AC50 data for 68 compounds are collected here from PubChem BioAssay AID901 (National Center for Advancing Translational Sciences (NCATS), 2007).

This is one part of the list. Shown are side measurements of this screen, not its main read-out; they come without a call. Most of these compounds were active or inconclusive in the main read-out, so they are no random draw. Words in brackets tell the shape of the fitted curve; partial curves, single points and poor fits give uncertain potencies.

As usually defined, the AC50 is the concentration giving half of the maximal activity seen.

The nature of this assay: qHTS Assay for Identifying the Cell-Membrane Permeable IMPase Inhibitors. Conditions: CHO-M1 cells, IP1 accumulation, HTRF TR-FRET ratio; measured here: donor channel 620 nm AC50. A general note: Quantitative high-throughput screening tests each substance at several concentrations.
As for `Cc1ccc(C(=O)OC2CCS(=O)(=O)c3sccc32)cc1` (stereo not drawn), the AC50 is 0.0126 µM [rising, full curve, poor fit].
In the case of `Fc1ccc(CNC(=S)Nc2ccc(Cl)cc2Cl)cc1` it was 5.01 µM [falling, full curve, poor fit].
With `COc1ccc(/C=N\NC(=O)C2=NNC(=O)C2C)cc1` (stereo not drawn), the AC50 was 10 µM [falling, single point].
In the case of `O=C(CCC1CC(=O)Nc2ccccc21)NCc1ccc(F)cc1` (stereo not drawn) it was 0.0251 µM [rising, full curve]; in that of `O=c1c([N+](=O)[O-])c(NC2CCCCC2)c2ccccc2n1-c1ccccc1`, 0.01 µM [falling, full curve, poor fit]; in that of `COc1ccc(S(=O)(=O)N2Cc3ccccc3CC2C(=O)Nc2cccc(C)c2)cc1OC` (stereo not drawn), 0.282 µM [falling, full curve].
In the case of `Cc1ccc(NC2SC(=O)N(CC(=O)O)C2=O)cc1` (stereo not drawn) it was 0.501 µM [falling, full curve, poor fit]; in that of `COc1ccc(-n2nnnc2SCC(=O)c2ccc3c(c2)OCCO3)cc1`, 0.00501 µM [falling, full curve, poor fit]; in that of `O=C(O)C1CC=CCC1C(=O)Nc1cccc(Cl)c1Cl` (stereo not drawn), 1.26 µM [rising, partial curve, poor fit].
In the case of `Nc1c(S(=O)(=O)c2cccs2)c2nc3ccccc3nc2n1Cc1cccs1` it was 31.6 µM [rising, single point]; in that of `O=C(Nc1ccc2c(c1)OCO2)C1CCN(c2ccc(S(=O)(=O)N3CCOCC3)cc2)CC1`, 6.31 µM [falling, single point]; in that of `Cc1cc(NC(=O)C2C3C(=O)N(Cc4ccc(Cl)cc4)C(C(=O)NCc4ccccc4)C34C=CC2(C)O4)no1` (stereo not drawn), 3.98 µM [falling, full curve].
With `CC(=O)Nc1c(C(=O)c2ccccc2)oc2ccccc12`, the AC50 was 0.1 µM [falling, full curve, poor fit].
In the case of `CCOC(=O)CCC(=O)N1CCNC(=O)C1` it was 0.0891 µM [falling, full curve, poor fit].
The same measure for `O=C(Nc1cnn(Cc2ccc(Cl)c(Cl)c2)c1)C12CC3CC(CC(C3)C1)C2`: 0.794 µM [falling, full curve, poor fit].
Consider `O=C(c1ccc([N+](=O)[O-])cc1)N(C1=NCCCCS1)c1ccccc1`, for which the AC50 was 6.31 µM [falling, single point].
In the case of `O=C(N1CCOCC1)N1CCCN(C(=O)N2CCOCC2)CC1` it was 0.0251 µM [rising, full curve]; in that of `COc1cc([N+](=O)[O-])ccc1NC(=O)C[n+]1cccc(C)c1`, 0.501 µM [falling, full curve, poor fit].
For the compound `CN(C)c1ccc(/C=C/c2ccc3ccccc3[n+]2C)cc1`, the AC50 was 15.8 µM [falling, partial curve].
Take `CC(C)=CCCC1=CCC(/C(C)=N/NC(N)=O)CC1` (stereo not drawn): the AC50 was 3.98 µM [rising, full curve, poor fit].
The same measure for `Cc1ccc(C(=O)C2=C(O)C(=O)N(c3ncccn3)C2c2cccc(Cl)c2)o1` (stereo not drawn): 10 µM [rising, partial curve]; for `Cc1nnsc1C(=O)Nc1cccc(Cl)c1Cl`: 0.2 µM [rising, single point].
The same measure for `COCCN(CCOC)C(=O)c1cc2c(=O)n3ccccc3nc2s1`: 5.01 µM [rising, single point]; for `CC(=O)Nc1ccc(S(=O)(=O)N=S(C)C)cc1`: 0.316 µM [falling, partial curve].
The same measure for `CCc1cc2cc3c(cc2nc1SCC(=O)Nc1nccs1)OCO3`: 25.1 µM [rising, partial curve]; for `Cc1ccc(Cn2c(=O)n(Cc3ccco3)c(=O)c3ccccc32)cc1`: 5.01 µM [falling, single point].
As to `CCOc1ccc(C(=O)N2CCC(C(=O)c3ccc4c(c3)OCCO4)CC2)cc1`, the AC50 was 35.5 µM [rising, single point].
Take `CCCc1nnc(NC(=O)CCCC(=O)O)s1`: the AC50 is 3.16 µM [rising, partial curve].
As for `Cc1ccc(NC(=O)C2CC(=O)NC(N3CCc4ccccc43)=N2)cc1` (stereo not drawn), the AC50 was 0.00501 µM [falling, full curve, poor fit].
In the case of `CCn1ccc2cc(OC)ccc2c1=S` it was 15.8 µM [rising, single point].
The same measure for `Cc1c(CCC(=O)O)c(=O)oc2cc3occ(-c4ccc(F)cc4)c3cc12`: 2.82 µM [falling, single point]; for `COc1cccc(C2C(C(=O)c3cc4ccccc4o3)=C(O)C(=O)N2c2cc(C)on2)c1OC` (stereo not drawn): 12.6 µM [rising, partial curve]; for `O=C1CCC(=O)N1CC(=O)N1c2ccccc2Sc2ccccc21`: 0.126 µM [falling, full curve, poor fit].
Turning to `Cc1ccc(C(=O)Nc2ccc3c(c2)CCC3)o1`, the AC50 was 11.2 µM [falling, partial curve, poor fit].
The same measure for `C=CCN1C2CCCC1CC(NC(=O)Nc1cccc(C(C)=O)c1)C2` (stereo not drawn): 31.6 µM [falling, single point]; for `CC(=O)c1ccccc1OCCCN1CCCCC1`: 0.251 µM [rising, single point].
The same measure for `COc1cc2c(cc1OC)-c1cc(OCCN3CCOCC3)nc(=O)n1CC2`: 3.98 µM [rising, single point]; for `COc1cc(/C=N/NC(=O)c2ccc(=O)[nH]n2)ccc1O`: 14.1 µM [falling, partial curve].
The same measure for `CC(C)CNC(=O)NC(=O)COc1c(F)c(F)cc(F)c1F`: 3.16 µM [rising, full curve].
Take `O=C(COc1ccccc1)Nc1ccccc1N1CCN(c2ccc(F)cc2)CC1`: the half-maximal activity concentration (AC50) was 5.01 µM [falling, single point].
As to `O=C(NCCCN1CCOCC1)c1ccc(CNS(=O)(=O)c2ccc(F)cc2)cc1`, the AC50 was 12.6 µM [falling, partial curve, poor fit].
The same measure for `Cn1c(=O)c(=O)n(C)c2cc(S(=O)(=O)CCC(=O)N3CCOCC3)ccc21`: 2.82 µM [falling, partial curve].
The same measure for `COc1cccc(Nc2nnc(SCC(=O)N(CC(C)C)CC(C)C)s2)c1`: 6.31 µM [falling, single point]; for `COc1cc(-c2nc(-c3ccncc3)no2)cc(OC)c1OC`: 31.6 µM [rising, single point].
On to `Cc1ccc2nc(C(O)C(O)c3nc4ccc(C)cc4[nH]3)[nH]c2c1` (stereo not drawn), for which the AC50 was 3.16 µM [falling, single point].
The same measure for `Cc1nn(CC(O)Cn2c3c(c4ccccc42)CCN(C)C3=O)c(C)c1Br` (stereo not drawn): 0.0282 µM [falling, full curve, poor fit]; for `Cc1cc(NC(=O)c2ccccc2Cl)c(C(C)C)cc1O`: 6.31 µM [rising, single point]; for `CC(=O)c1ccc2cccc3c2c1N=CN3C`: 20 µM [falling, partial curve, poor fit].
The same measure for `COC(=O)c1ccccc1NC(=O)COc1ccc(S(=O)(=O)N2CCCC2)cc1C`: 31.6 µM [rising, single point]; for `CCOc1nc(C)ccc1-c1noc(-c2ccncc2)n1`: 0.501 µM [falling, full curve].
In the case of `CCOC(=O)c1c2n(c3ccc(O)cc13)CCC2` it was 11.2 µM [falling, single point]; in that of `Cc1ccc(N/C=C/C(=O)c2sc(-c3ccccc3)nc2C)cc1`, 0.0316 µM [rising, full curve, poor fit].
On to `CCOc1cccc2cc(C(=O)Nc3cc(C)on3)c(=O)oc12`, for which the half-maximal activity concentration (AC50) was 10 µM [rising, partial curve].
Turning to `O=C(COc1ccc(Br)cc1)Nc1ccc(C(=O)OC2CCCCC2)cc1`, the AC50 is 35.5 µM [rising, single point].
In the case of `COc1cc(C2NC(=O)NC(C)=C2C(=O)Nc2cccc(C)c2C)cc(OC)c1OC` (stereo not drawn) it was 1.58 µM [falling, full curve]; in that of `CCCCOc1nc2ccccc2nc1C(C#N)C(=O)NC1CCCCC1` (stereo not drawn), 2.82 µM [falling, partial curve, poor fit].
The same measure for `O=C1c2ccccc2C(=O)c2c1ccc(C(=O)N1CCCCC1)c2NCCO`: 7.94 µM [falling, partial curve]; for `CC#CCOC(=O)c1c(C)nc2sc3c(c2c1N)CC[C@@H](O)C3`: 31.6 µM [rising, single point].
Consider `CCOc1cccc(C2c3c(oc4ccc(F)cc4c3=O)C(=O)N2CCOC)c1` (stereo not drawn), for which the AC50 was 5.62 µM [falling, single point].
In the case of `COCCn1c(-c2ccc(-c3ccccc3Cl)o2)nc2c1c(=O)[nH]c(=O)n2CC(C)C` it was 3.98 µM [rising, full curve]; in that of `COCC(=O)Nc1c(C(=O)Nc2cccc(OC)c2)oc2ccccc12`, 31.6 µM [falling, single point].
In the case of `COc1ccccc1OCCCCNCCO` it was 0.0141 µM [rising, full curve, poor fit]; in that of `O=C(NCc1ccc(Cl)cc1)c1cc2c(nc3sccn32)s1`, 25.1 µM [rising, single point].
In the case of `CCCOc1ccccc1C1CC(=O)NC2=C1C(=O)CCC2` (stereo not drawn) it was 2.51 µM [falling, full curve, poor fit].
Consider `O=C(O)c1ccc(OC2CSC2)cc1`, for which the concentration at half-maximal activity (AC50) was 0.0501 µM [falling, partial curve, poor fit].
In the case of `CC(=O)c1c(C)nn(C(C)CC(=O)O)c1C` (stereo not drawn) it was 0.1 µM [falling, single point]; in that of `CC(C)C(NS(=O)(=O)c1cccs1)C(=O)NCc1ccc2c(c1)OCO2` (stereo not drawn), 35.5 µM [rising, single point].
The same measure for `O=C1CC(c2cccc(O)c2)c2cc3c(cc2N1)OCO3` (stereo not drawn): 35.5 µM [falling, single point].
